# Measurements: the supplement of paper PMC9135407
# Several values for one entry are separate records, joined by “and”; a condition that tells them apart may be missing. Equal values may be shown once. Where a name gives a salt, the structure may show the parent alone. ± gives the standard deviation of the averaged measurements. The list shows a part of the results. Baselines shift from plate to plate; read single values as rough.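 Primary human stellate myofibroblasts activated in culture; inactivation shown by regained lipid droplets. Readout: fraction of Hoechst-counted cells exceeding a per-plate Bodipy threshold, duplicate wells, each plate with DMSO negative and nortriptyline positive controls. Hits: control-normalized score beyond the plate's top-tenth-percentile nortriptyline wells, or among its three best wells. Final well concentrations unstated.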
# Tested on: primary human hepatic stellate cells (donor 1)
# Assay: percent Bodipy-positive cells; higher = more lipid droplet accumulation
# Details: 48 h
# [1] = library stock concentration: 1 mM
# [2] = library stock concentration: 3.33 mM
# [3] = library stock concentration: 10 mM
compound,measurement,setting,value
CCOC(=O)c1c(Cc2cccc(Cl)c2)[nH]c2c1cc(O)c1ccccc12,percent Bodipy-positive cells,[1],10.9 ± 1.1%
COC(=O)C1=C(C)NC(C)=C(C(=O)OC)C1c1ccccc1[N+](=O)[O-] [Nifedipine],percent Bodipy-positive cells,,36.5 ± 5.4%
same,percent Bodipy-positive cells,[2],7.52 ± 1%
same,percent Bodipy-positive cells,library stock concentration: 5.8 mM,11.2% and 4.03%
COC(=O)C1=C(C)NC(C)=C(C(=O)OC)C1c1ccccc1[N+](=O)[O-],percent Bodipy-positive cells,[3],22.4 ± 3.1%
Nc1[nH]nc2nc3ccccc3nc12,percent Bodipy-positive cells,[3],7.61 ± 2.5%
COc1cc2c(CCNC(C)=O)c[nH]c2cc1O [6-Hydroxymelatonin],percent Bodipy-positive cells,[3],50 ± 1.9%
O=C1CC[C@@H](C(=O)O)N1,percent Bodipy-positive cells,[3],40.8 ± 16%
CO[C@@]1(NC(=O)C(C(=O)O)c2ccc(O)cc2)C(=O)N2C(C(=O)O)=C(CSc3nnnn3C)CO[C@@H]21 (stereo not given in full) [Moxalactam disodium],percent Bodipy-positive cells,library stock concentration: 3.5 mM,2.98 ± 0.82%
same,percent Bodipy-positive cells,[3],9.81 ± 0.72%
CO[C@@]1(NC(=O)C(C(=O)O)c2ccc(O)cc2)C(=O)N2C(C(=O)O)=C(CSc3nnnn3C)CO[C@@H]21 (stereo not given in full) [Moxalactam disodium salt],percent Bodipy-positive cells,,11.3 ± 3.5%
C=CCc1cc(OC)c(O)c(C(=O)NCCO)c1 [Alibendol],percent Bodipy-positive cells,[2],10.5 ± 0.81%
same,percent Bodipy-positive cells,[3],18.2 ± 1%
CN(CCc1ccc(Cl)c(Cl)c1)CC(O)COc1ccc(NS(C)(=O)=O)cc1 (stereo not given),percent Bodipy-positive cells,[3],44.9 ± 10%
NC(=O)c1ccc2nc(-c3ccc(Oc4ccc(Cl)cc4)cc3)[nH]c2c1 [Chk2 Inhibitor II],percent Bodipy-positive cells,[2],10 ± 1.8%
COc1ccc([C@@H]2CNC(=O)C2)cc1OC1CCCC1 [(R)-(-)-Rolipram],percent Bodipy-positive cells,[3],9.35 ± 1.6%
COc1ccccc1OCCNCC(O)COc1cccc2[nH]c3ccccc3c12 (stereo not given) [Carvedilol],percent Bodipy-positive cells,[3],75.4 ± 0.89%
Nc1ccc(S(=O)(=O)Nc2ncccn2)cc1 [Sulfadiazine],percent Bodipy-positive cells,,49.6 ± 36%
same,percent Bodipy-positive cells,[2],8.36 ± 4.6%
same,percent Bodipy-positive cells,library stock concentration: 8 mM,4.62% and 14.4%
same,percent Bodipy-positive cells,[3],13.5% and 14.4%
CCCC(C)NC(=O)c1ccc(Cl)c(Cl)c1 (stereo not given),percent Bodipy-positive cells,[2],30.9 ± 3.9%
same,percent Bodipy-positive cells,[3],35.1 ± 10%
O=C(Nc1ccc(Cl)cc1)c1ccccc1NCc1ccncc1 [VEGF Receptor Tyrosine Kinase Inhibitor II],percent Bodipy-positive cells,[2],13.9 ± 7.4%
CC(C)[C@H](C(=O)Nc1ccc(C(=O)NO)cc1)c1ccccc1,percent Bodipy-positive cells,[1],46.5 ± 3.5%
same,percent Bodipy-positive cells,[2],62.25 ± 0.18%
same,percent Bodipy-positive cells,[3],66.1 ± 1%
C#C[C@]1(OC(C)=O)CC[C@H]2[C@@H]3CCC4=C[C@@H](OC(C)=O)CC[C@@H]4[C@H]3CC[C@@]21C [Ethynodiol diacetate],percent Bodipy-positive cells,,10 ± 1.7%
same,percent Bodipy-positive cells,[2],11.8 ± 1.3%
same,percent Bodipy-positive cells,library stock concentration: 5.2 mM,11.4 ± 5.4%
same,percent Bodipy-positive cells,[3],42.1 ± 19%
N[C@H]1CCN(O)C1=O,percent Bodipy-positive cells,[3],7.17 ± 2.1%
O=C(O[C@H]1[C@H](Oc2ccccc2COC(=O)C2(O)C=CCCC2=O)O[C@H](CO)[C@@H](O)[C@@H]1O)c1ccccc1 (stereo not given in full),percent Bodipy-positive cells,[3],16.9 ± 5.4%
CCC(C)[C@H](NC(=O)[C@H](CCCCN)NC(=O)[C@H](CCCCN)NC(=O)[C@H](C)NC(=O)[C@H](CC(C)C)NC(=O)[C@H](C)NC(=O)[C@H](C)NC(=O)[C@H](CC(C)C)NC(=O)[C@H](C)NC(=O)[C@H](CCCCN)NC(=O)[C@H](CC(C)C)NC(=O)[C@H](CC(N)=O)NC(=O)[C@@H](N)[C@@H](C)CC)C(=O)N[C@@H](CC(C)C)C(N)=O (stereo not given in full) [Mastoparan],percent Bodipy-positive cells,library stock concentration: 3 mM,14.6 ± 6.6%
CC(Oc1ccc(O)cc1)(P(=O)(O)O)P(=O)(O)O,percent Bodipy-positive cells,[3],7.42 ± 2.2%
"C=C1C[C@@H](O)[C@H](/C=C/[C@@H](O)C(C)(C)CCCC)[C@H]1C/C=C\CCCC(=O)O [9-deoxy-9-methylene-16,16-dimethyl Prostaglandin E2]",percent Bodipy-positive cells,[1],23.7 ± 10%
CNCCC=C1c2ccccc2CCc2ccccc21.Cl,percent Bodipy-positive cells,[3],98.4 ± 1.4%
Cc1c(Cl)cccc1Nc1ccccc1C(=O)O [Tolfenamic Acid],percent Bodipy-positive cells,[2],9.68 ± 2.1%
same,percent Bodipy-positive cells,[3],14.7 ± 8.4%
Cc1c(Cl)cccc1Nc1ccccc1C(=O)O [Tolfenamic acid],percent Bodipy-positive cells,,24.6 ± 3.8%
same,percent Bodipy-positive cells,library stock concentration: 7.6 mM,8.91 ± 2.2%
same,percent Bodipy-positive cells,[3],15.9 ± 2.9%
CCCSc1ccc2[nH]c(NC(=O)OC)nc2c1 [Albendazole],percent Bodipy-positive cells,,39.84 ± 0.22%
same,percent Bodipy-positive cells,[2],20.9 ± 5.3%
same,percent Bodipy-positive cells,library stock concentration: 7.5 mM,36.3% and 16.3%
COc1cc(F)c(C(C)C)cc1-c1ccc(C(F)(F)F)cc1CN1C(=O)O[C@H](c2cc(C(F)(F)F)cc(C(F)(F)F)c2)[C@@H]1C [Anacetrapib (MK-0859)],percent Bodipy-positive cells,[2],5.81 ± 0.97%
same,percent Bodipy-positive cells,[3],10.1 ± 2.6%
CO[C@H]1/C=C/O[C@@]2(C)Oc3c(C)c(O)c4c(O)c(c(/C=N/N5CCN(C)CC5)c(O)c4c3C2=O)NC(=O)/C(C)=C\C=C\[C@H](C)[C@H](O)[C@@H](C)[C@@H](O)[C@@H](C)[C@H](OC(C)=O)[C@@H]1C [Rifampicin],percent Bodipy-positive cells,,23.1 ± 7.3%
CO[C@H]1/C=C/O[C@@]2(C)Oc3c(C)c(O)c4c(O)c(c(/C=N/N5CCN(C)CC5)c(O)c4c3C2=O)NC(=O)/C(C)=C\C=C\[C@H](C)[C@H](O)[C@@H](C)[C@@H](O)[C@@H](C)[C@H](OC(C)=O)[C@@H]1C,percent Bodipy-positive cells,[3],20.6 ± 6.2%
CO[C@H]1/C=C/O[C@@]2(C)Oc3c(C)c(O)c4c(O)c(c(/C=N/N5CCN(C)CC5)c(O)c4c3C2=O)NC(=O)/C(C)=C\C=C\[C@H](C)[C@H](O)[C@@H](C)[C@@H](O)[C@@H](C)[C@H](OC(C)=O)[C@@H]1C [Rifampin],percent Bodipy-positive cells,[2],8.14 ± 3.4%
same,percent Bodipy-positive cells,[3],13.1% and 10.1%
CC(C)NCC(O)c1ccc(O)c(O)c1 (racemic) [Isoproterenol HCl (rac)],percent Bodipy-positive cells,library stock concentration: 9.5 mM,8.59 ± 0.58%
Cc1n[nH]c2ccc(-c3cncc(OC[C@@H](N)Cc4ccccc4)c3)cc12,percent Bodipy-positive cells,[2],98.1 ± 1.4%
CC(C)(C)c1ccc(/C=C/C(=O)Nc2ccc3c(c2)OCCO3)cc1,percent Bodipy-positive cells,[3],32.2% and 9.83%
CC[n+]1c(/C=C/C=C2/N(C)c3ccccc3C2(C)C)sc2ccccc21,percent Bodipy-positive cells,[3],100%

# Two neighbouring records from above, for reference:
compound,measurement,setting,value
CO[C@H]1/C=C/O[C@@]2(C)Oc3c(C)c(O)c4c(O)c(c(/C=N/N5CCN(C)CC5)c(O)c4c3C2=O)NC(=O)/C(C)=C\C=C\[C@H](C)[C@H](O)[C@@H](C)[C@@H](O)[C@@H](C)[C@H](OC(C)=O)[C@@H]1C [Rifampicin],percent Bodipy-positive cells,,23.1 ± 7.3%
CO[C@H]1/C=C/O[C@@]2(C)Oc3c(C)c(O)c4c(O)c(c(/C=N/N5CCN(C)CC5)c(O)c4c3C2=O)NC(=O)/C(C)=C\C=C\[C@H](C)[C@H](O)[C@@H](C)[C@@H](O)[C@@H](C)[C@H](OC(C)=O)[C@@H]1C,percent Bodipy-positive cells,[3],20.6 ± 6.2%
